These are yes or no findings as the source states them, for the method shown. Binding seen in cells or lysates may run through a third protein. Some entries that bind do so weakly or less than the wild type. Tags and fused reporters may be left off the sequences shown.
Columns and labels:
[1] = molecular target: FLAG-tagged mouse Cradd death domain (wild type) (mouse) (UniProt O88843); experiment: co-IP; FLAG-M2 affinity resin; lysates of mIMCD3 cells co-transfected with FLAG-Cradd DD and V5-Pidd DD; cleared lysates incubated at 37°C for 1 h prior to overnight incubation on the resin; blots with anti-FLAG M2 and anti-V5
[2] = molecular target: FLAG-tagged mouse Cradd death domain p.Gly128Arg (mouse) (UniProt O88843); experiment: as above

Sequences of proteins named here, by UniProt entry; tags and fusion partners are left off. A change or cut given only in a name is not applied to a line headed by its entry. A line that says so, or that is headed by a name, gives the form on record, which may keep a tag or linker. Residues count along the entry.
FLAG-tagged mouse Cradd death domain (wild type) (O88843, residues 116-188): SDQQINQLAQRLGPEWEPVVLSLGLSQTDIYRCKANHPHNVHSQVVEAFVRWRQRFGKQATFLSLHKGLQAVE
FLAG-tagged mouse Cradd death domain p.Gly128Arg (O88843, form named): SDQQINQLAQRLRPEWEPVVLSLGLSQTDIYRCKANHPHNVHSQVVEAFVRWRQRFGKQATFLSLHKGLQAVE

B1: V5-tagged mouse Pidd death domain (wild type) (domain or fragment, UniProt Q9ERV7 793-878)
chain: TQSNLLSVASRLGPDWPAVALHLGMPYHKLQRIRHEFRDDLDGQVRHMLFSWAERQTGQPGAVGHLVQALEQSDRRDVAEEVRAIL
B1 was tested, and the binding [1] was “binds” and the binding [2] was “no binding”.
